# Results are given in words; binding and its absence hold for the method and conditions named. Binding seen in cells or lysates may run through a third protein. Here binding means that the protein was enriched with, or labelled near, the bait; the list need not be complete.
# B1: hematopoietic cell-specific Lyn substrate 1 (protein, UniProt P49710 1-486)
# chain: MWKSVVGHDVSVSVETQGDDWDTDPDFVNDISEKEQRWGAKTIEGSGRTEHINIHQLRNKVSEEHDILKKKELESGPKASHGYGGRFGVERDRMDKSAVGHEYVADVEKHSSQTDAARGFGGKYGVERDRADKSAVGFDYKGEVEKHASQKDYSHGFGGRYGVEKDKRDKAALGYDYKGETEKHESQRDYAKGFGGQYGIQKDRVDKSAVGFNEMEAPTTAYKKTTPIEAASSGARGLKAKFESLAEEKRKREEEEKAQQMARQQQERKAVVKMSREVQQPSMPVEEPAAPAQLPKKISSEVWPPAESHLPPESQPVRSRREYPVPSLPTRQSPLQNHLEDNEEPPALPPRTPEGLQVVEEPVYEAAPELEPEPEPDYEPEPETEPDYEDVGELDRQDEDAEGDYEDVLEPEDTPSLSYQAGPSAGAGGAGISAIALYDYQGEGSDELSFDPDDIITDIEMVDEGWWRGQCRGHFGLFPANYVKLL
# Molecular target: glutathione S-transferase (GST) fused with the SH2 domain of WT 3BP2
# Assay: affinity purification with mass spectrometry; lysate of curdlan-stimulated BMDCs divided equally; pull-down with GST-3BP2-SH2-WT or -RK on GSH beads; co-precipitated proteins digested with trypsin and analysed by DIA-MS; only the target purified
binder,measurement,value
B1,binding,binds

# Reference: article PMC11647625
